Experimental data from patent US20080038251A1, “MN/CA IX and MAPK inhibition” (priority 2006, published 2008).
For at least one compound, name, drawing or mass did not settle the structure.

Experiments:
CA IX protein = test: Immunoblotting of endogenous CA IX protein expression in HeLa cells; type: cell-based, human; conditions: Example 8, high and low cell density, data not shown
Experimental: HeLa cells were plated in dense (80,000 cells/cm^2) and sparse (10,000 cells/cm^2) cultures and incubated for 24 h. […] Parallel control dishes were pre-treated and maintained in normoxia for the same time period.
For the detection of CA IX, the cells were extracted with cold RIPA buffer for 15 min at 4° C. The extracts were then centrifuged (15 min at 13,000 rpm) and total protein concentrations were determined by BCA assay (Pierce, Rockford, Ill.). Samples of 30 μg total proteins were separated by the electrophoresis using 10% SDS-PAGE and blotted onto the PVDF membrane. Before immunodetection, the membrane was treated by the blocking buffer containing 5% non-fat milk in PBS with 0.2% Nonidet P-40 for 1 h and incubated for 1 h with M75 MAb diluted 1:2 in the blocking buffer. Then the membrane was washed, incubated for 1 h with the anti-mouse secondary antibody, washed again and developed with the ECL detection system. Intensity of CA IX-specific bands was analyzed by the Scion Image Beta 4.02 software (Scion Corporation, Frederick, Md.), and relative CA IX expression was expressed as percentages.

PR1-HRE CA9 promoter = test: PR1-HRE-luc CA9 promoter luciferase-renilla reporter assay in HeLa cells; type: cell-based, human; conditions: Example 8
From the text: The PR1-HRE-luc promoter construct was generated by an insertion of a −50/+37 CA9 genomic region amplified by PCR upstream of the firefly luciferase gene in pGL3-Basic luciferase reporter vector (Promega). pRL-TK renilla vector (Promega) served for the control of the transfection efficiency.
Therefore, the inventors have cloned a −50/+37 CA9 genomic region, containing that module in its natural context relative to the transcription start site, upstream of the reporter luciferase gene. The PR1-HRE-luc promoter construct was then co-transfected with the renilla-coding control plasmid to HeLa cells that express CA IX protein in response to hypoxia and high cell density.

## O=c1cc(N2CCOCC2)oc2c(-c3ccccc3)cccc12 [LY294002]
CA IX protein
  CA IX protein level (immunoblotting): considerably diminished
PR1-HRE CA9 promoter; dense hypoxic (1% O2) HeLa, 20 μM U0126, 10 μM LY294002
  CA9 promoter activity, fraction of control value: about one third
PR1-HRE CA9 promoter; normoxic and sparse HeLa cells, compared with dense hypoxic cells
  effect on CA9 promoter activity: less pronounced
